Experimental data reported in doi:10.1101/2024.01.20.576408.
Results are given in words; binding and its absence hold for the method and conditions named. Some binding calls cover weakened binding; strength is not graded here. For part of these data: Where a sequence is shown, tags or fusion partners need not be part of it. Each block holds one binder with its values, some of them ahead of it.

The chains behind the UniProt entries cited, without tags or fusion partners.
UniProt Q08689: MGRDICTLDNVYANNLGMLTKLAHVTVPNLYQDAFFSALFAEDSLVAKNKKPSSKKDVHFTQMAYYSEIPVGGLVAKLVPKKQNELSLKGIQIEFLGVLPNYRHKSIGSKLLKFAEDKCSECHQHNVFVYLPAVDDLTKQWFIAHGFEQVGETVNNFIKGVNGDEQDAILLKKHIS

What was measured:
Rrn7 (S. cerevisiae) = molecular target: T1, Rrn7 (S. cerevisiae) (UniProt P40992); experiment: RNA immunoprecipitation qPCR
T1 sequence: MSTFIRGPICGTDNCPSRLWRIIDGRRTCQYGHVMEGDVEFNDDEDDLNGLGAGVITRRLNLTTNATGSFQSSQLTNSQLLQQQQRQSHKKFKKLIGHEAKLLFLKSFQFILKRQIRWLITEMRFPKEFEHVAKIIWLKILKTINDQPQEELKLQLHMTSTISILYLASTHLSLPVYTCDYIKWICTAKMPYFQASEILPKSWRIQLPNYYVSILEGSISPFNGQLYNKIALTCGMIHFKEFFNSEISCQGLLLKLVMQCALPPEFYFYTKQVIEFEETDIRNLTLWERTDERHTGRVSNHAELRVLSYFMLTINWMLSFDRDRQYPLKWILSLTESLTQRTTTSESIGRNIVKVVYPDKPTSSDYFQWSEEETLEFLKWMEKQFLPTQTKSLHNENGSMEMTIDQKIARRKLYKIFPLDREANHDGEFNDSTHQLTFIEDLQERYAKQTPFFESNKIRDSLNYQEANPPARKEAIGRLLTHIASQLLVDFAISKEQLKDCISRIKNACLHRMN

[1] = molecular target: T2, Ski3, C-terminally HA-tagged (S. cerevisiae) (UniProt P17883); experiment: RNA immunoprecipitation qPCR
T2 sequence: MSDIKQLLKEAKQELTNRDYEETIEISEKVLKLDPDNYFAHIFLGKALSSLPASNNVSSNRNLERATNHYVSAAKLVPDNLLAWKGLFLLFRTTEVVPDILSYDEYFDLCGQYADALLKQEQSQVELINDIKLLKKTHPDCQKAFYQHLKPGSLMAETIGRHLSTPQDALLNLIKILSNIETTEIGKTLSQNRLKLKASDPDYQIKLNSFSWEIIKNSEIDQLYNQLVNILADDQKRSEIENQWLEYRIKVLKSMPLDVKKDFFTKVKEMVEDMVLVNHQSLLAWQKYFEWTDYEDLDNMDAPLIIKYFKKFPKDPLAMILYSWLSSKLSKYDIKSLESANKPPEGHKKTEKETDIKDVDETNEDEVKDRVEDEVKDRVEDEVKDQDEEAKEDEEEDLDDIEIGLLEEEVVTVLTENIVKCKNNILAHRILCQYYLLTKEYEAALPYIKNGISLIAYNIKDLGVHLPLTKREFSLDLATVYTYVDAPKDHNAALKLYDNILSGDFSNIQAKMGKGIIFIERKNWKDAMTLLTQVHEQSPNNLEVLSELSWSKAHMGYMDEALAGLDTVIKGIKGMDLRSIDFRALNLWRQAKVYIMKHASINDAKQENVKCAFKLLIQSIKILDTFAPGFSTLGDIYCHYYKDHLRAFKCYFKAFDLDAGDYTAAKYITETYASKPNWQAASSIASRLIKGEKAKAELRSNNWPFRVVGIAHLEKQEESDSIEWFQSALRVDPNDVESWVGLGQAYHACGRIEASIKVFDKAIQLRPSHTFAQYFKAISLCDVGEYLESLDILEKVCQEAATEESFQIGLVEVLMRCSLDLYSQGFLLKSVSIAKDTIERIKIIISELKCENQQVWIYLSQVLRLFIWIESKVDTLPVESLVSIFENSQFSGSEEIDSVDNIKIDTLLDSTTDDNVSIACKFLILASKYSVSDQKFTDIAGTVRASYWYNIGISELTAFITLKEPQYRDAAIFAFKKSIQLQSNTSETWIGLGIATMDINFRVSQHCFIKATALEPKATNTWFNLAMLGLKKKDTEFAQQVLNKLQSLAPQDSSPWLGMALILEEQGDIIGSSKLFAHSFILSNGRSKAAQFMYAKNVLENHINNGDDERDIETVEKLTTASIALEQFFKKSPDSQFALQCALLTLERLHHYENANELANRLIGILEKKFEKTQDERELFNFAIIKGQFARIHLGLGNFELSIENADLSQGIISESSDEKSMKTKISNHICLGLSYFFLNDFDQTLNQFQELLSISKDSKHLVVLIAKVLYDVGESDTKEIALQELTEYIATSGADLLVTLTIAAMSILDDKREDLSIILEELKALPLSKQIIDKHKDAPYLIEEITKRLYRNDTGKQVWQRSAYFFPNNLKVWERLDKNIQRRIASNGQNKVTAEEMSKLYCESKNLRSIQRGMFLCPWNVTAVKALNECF

[2] = molecular target: Nat5, C-terminally tagged (S. cerevisiae) (UniProt Q08689); experiment: selective ribosome profiling

binding (Rrn7 (S. cerevisiae)): binds
B1: Rrn6 (protein, UniProt P32786 1-894)
chain: MSEGQIPSSDVLGSQLGVGVQGASLYCPQENYTTKKQEKPQWLRPVDDTLAEDALDLHIVVKSLLCDTAIRYISDDKVLQESDADDDLITSDIDEDTDNQGDTSIVVNPVIPVVPKDVHFFKKVDVGNDSMFGVNCDTPVSFQDYIPSDLLRNLDDTLQESTNSSRPMQDAFFWDPTVANRLDSQYIQTASDLRNYRDGTEIIAYASGKTGSVLNIAVLTRQNTLHLNRHNNVTSIELHSPIKSIKIPGASESIGRRSNLVGIITENSFQIFRIESVHSRSCDVMVSSSEPLYFVEIDDLQVVDFAFNPWDLQQFAIIDIKGNWSIGRIPKNFNNNNKRKLQLIDNLHGTIFDPEELSSWKRIEWFSHFQKILVFDRSKMIEIDFMNNWQTEVVQAKAWSNIRDYKRIDDKNGILLTSREIIIVGASESNDPVRRISWKHDLDPDDTTLRITVQKVKKPDHILLVAFVYSMRHKRIYMHVFSHRKANLFQSLGCSTVLEIPGGTPTGIETILTLDHIDDESRREEDADENFELVVDFLVKLRNSSEVYYYALSNTQNSEPNKQETPIIVDHPEWASLFNNADEREKESIGALVSQIKLKERERISRVQNLIEHENSHDEDKYLQDLGYRLSIATNELLESWQKTKDESILSGSLSHSKLKNLLENSDSFASIPEFSSLLDQFFQYYQDQDVTFIGFEKLLHLFLHEDVPGLDIFYNKLLQCWVLVSPQAELLTKEIVKDIIWSLARLEKPSLFEPIQNEISRSLSGPYQDIISSWDMDDINEEDESNEFNFDSQFSAPFNGRPPFNLNSQSQIPTIKSSQSSGLARRKRILKTQSQKATPLSQSTQNLSVLPDSMTPAFTLMQPPSSQISFVNDSQPRNSQKAKKKKKRIRGFG

binding [1]: binds
B2: Ski2, nascent chain on translating ribosomes (protein, UniProt P35207 1-1287)
chain: MSEGFSSSSIQELYQSLKEITNNADVELFEDRITKLDFESTDEPKHANDIIKDRFLRPSNALPWSLLDMVQDVPHTSSPEDCSGKLDYKELLKVPDPINRTSYQFKRTGLEGKISGYKEEVDLKEVANANASNSLSITRSINHNQNSVRGSTAQLPFTPGGIPMKSVKTDSEQNGSSTMANATKLLHKDGQGLFDIPEGMNRGIKPMDSPAENEDQNGQFKELKQLNEIDNELDIRIEANEAKLKEEEKSAKSISEEIMEEATEETTADNADDAEIDELLPIGIDFGRTKPVSKSVPVKKEWAHVVDLNHKIENFDELIPNPARSWPFELDTFQKEAVYHLEQGDSVFVAAHTSAGKTVVAEYAIAMAHRNMTKTIYTSPIKALSNQKFRDFKETFDDVNIGLITGDVQINPDANCLIMTTEILRSMLYRGADLIRDVEFVIFDEVHYVNDQDRGVVWEEVIIMLPQHVKFILLSATVPNTYEFANWIGRTKQKNIYVISTPKRPVPLEINIWAKKELIPVINQNSEFLEANFRKHKEILNGESAKGAPSKTDNGRGGSTARGGRGGSNTRDGRGGRGNSTRGGANRGGSRGAGAIGSNKRKFFTQDGPSKKTWPEIVNYLRKRELLPMVVFVFSKKRCEEYADWLEGINFCNNKEKSQIHMFIEKSITRLKKEDRDLPQILKTRSLLERGIAVHHGGLLPIVKELIEILFSKGFIKVLFATETFAMGLNLPTRTVIFSSIRKHDGNGLRELTPGEFTQMAGRAGRRGLDSTGTVIVMAYNSPLSIATFKEVTMGVPTRLQSQFRLTYNMILNLLRIEALRVEEMIKYSFSENAKETLQPEHEKQIKVLQEELQTIEYKSCEICDNDIEKFLELMLAYKEATVNLMQEMVKSPSILHILKEGRLVAFRDPNDCLKLGFVFKVSLKDAVCVIMTFTKPYKLPNGEPNHLIYFPKADGYRRRNFPKFQKTDFYMEEVPVTAIEVITKRKFAAPLGKVIKKDVAALNEFNAETNNILDGKTLKEAINIEKQGLKIHQILLDRTNIRDEIFKLKSIKCPNLSQHIVPKFKAHVIKKKIEELYHLMSDQNLSLLPDYEKRLAVLKDTEFIDQNHNVLLKGRVACEINSGYELVLTELILDNFLGSFEPEEIVALLSVFVYEGKTREEEPPIVTPRLAKGKQRIEEIYKKMLCVFNTHQIPLTQDEAEFLDRKRFAMMNVVYEWARGLSFKEIMEMSPEAEGTVVRVITWLDEICREVKTASIIIGNSTLHMKMSRAQELIKRDIVFAASLYL

binding [2]: binds
B3: Nat1, nascent chain on translating ribosomes (protein, UniProt P12945 1-854)
chain: MSRKRSTKPKPAAKIALKKENDQFLEALKLYEGKQYKKSLKLLDAILKKDGSHVDSLALKGLDLYSVGEKDDAASYVANAIRKIEGASASPICCHVLGIYMRNTKEYKESIKWFTAALNNGSTNKQIYRDLATLQSQIGDFKNALVSRKKYWEAFLGYRANWTSLAVAQDVNGERQQAINTLSQFEKLAEGKISDSEKYEHSECLMYKNDIMYKAASDNQDKLQNVLKHLNDIEPCVFDKFGLLERKATIYMKLGQLKDASIVYRTLIKRNPDNFKYYKLLEVSLGIQGDNKLKKALYGKLEQFYPRCEPPKFIPLTFLQDKEELSKKLREYVLPQLERGVPATFSNVKPLYQRRKSKVSPLLEKIVLDYLSGLDPTQDPIPFIWTNYYLSQHFLFLKDFPKAQEYIDAALDHTPTLVEFYILKARILKHLGLMDTAAGILEEGRQLDLQDRFINCKTVKYFLRANNIDKAVEVASLFTKNDDSVNGIKDLHLVEASWFIVEQAEAYYRLYLDRKKKLDDLASLKKEVESDKSEQIANDIKENQWLVRKYKGLALKRFNAIPKFYKQFEDDQLDFHSYCMRKGTPRAYLEMLEWGKALYTKPMYVRAMKEASKLYFQMHDDRLKRKSDSLDENSDEIQNNGQNSSSQKKKAKKEAAAMNKRKETEAKSVAAYPSDQDNDVFGEKLIETSTPMEDFATEFYNNYSMQVREDERDYILDFEFNYRIGKLALCFASLNKFAKRFGTTSGLFGSMAIVLLHATRNDTPFDPILKKVVTKSLEKEYSENFPLNEISNNSFDWLNFYQEKFGKNDINGLLFLYRYRDDVPIGSSNLKEMIISSLSPLEPHSQNEILQYYL
